# Results from PubChem BioAssay AID651702 (NMMLSC, 2012).
# The campaign covered roughly 360,000 compounds. About 2,400 (0.67%) were called active. This list was built around the results that the source calls inconclusive (neither active nor inactive); the mix of calls is not that of the screen.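 The calls were made as follows: active = inhibition above about 55% (limit read from the data); inconclusive = no clear call, values can overlap the other calls; inactive = the rest.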
# Assay: LAMP-1 surface exposure blockers, TALL-104 cells – cell-based, flow cytometry, MLPCN library, primary screen (AID 651702)
# Conditions: TALL-104 LAMP-1 surface exposure, cells stimulated with thapsigargin and PMA; at 10 µM, stronger effect = higher value
row,Structure (SMILES),inhibition
1,Cc1cccn2c(=O)c3cc(C(=O)NCCc4ccccc4)c(=N)n(Cc4ccco4)c3nc12,active: 77.6%
2,O=S(Cc1cc(Oc2ccccc2)nc(-c2ccccc2)n1)c1ccccc1 (stereo unspecified),inconclusive
3,COc1ccc(CC(=O)N(Cc2ccccc2)c2cccc(C)c2)cc1OC,inactive: -1.3%
4,COc1cc(NC(=O)C2=C(N3CCOCC3)/C(=C\c3ccc(N(C)C)cc3)CCC2)cc(OC)c1OC,inactive: 4%
5,COc1cccc(OC)c1C(=O)Oc1ccc2c(c1)O/C(=C\c1ccncc1)C2=O,active: 60%
6,CC(C)c1cc(C(=O)N/N=C/c2cccnc2)n[nH]1,inactive: 3.9%
7,Cc1ccccc1NC(=O)c1ccc(CN(c2ccccc2)S(=O)(=O)c2ccccc2)cc1,inconclusive
8,O=C(Nc1sc2c(c1C(=O)NCc1ccco1)CCCC2)c1ccc2c(c1)OCO2,active: 59.2%
9,CCCn1c(SCC(=O)Nc2cc(S(=O)(=O)N3CCOCC3)ccc2Cl)n[nH]c1=O,inconclusive
10,COCCNC(=O)CN1C(=O)NC2(CCOc3ccccc32)C1=O (stereo unspecified),inconclusive
11,C=CCn1c(SCC(=O)Nc2ccc3c(c2)OCO3)nnc1-c1ccccc1OC,inconclusive
12,CS(=O)(=O)c1ccccc1-c1nnc(NC(=O)Cc2ccccc2)o1,inconclusive
13,O=C(Nc1cccc(Cl)c1)Nc1nccs1,inactive: -3%
14,O=C(Nc1nc(-c2nc3ccccc3s2)cs1)c1ccc(S(=O)(=O)N2CCOCC2)cc1,active: 62.4%
15,COC(=O)CS(=O)(=O)c1cc([N+](=O)[O-])ccc1NC(=O)OC,inconclusive
16,COc1ccc(C2CC(c3ccccc3)=NN2C(=O)COC(=O)C2CC2)cc1 (stereo unspecified),inconclusive
17,CCOC(=O)c1nc(NCc2ccccc2F)c2ccccc2n1,inconclusive
18,O=C(NC(=S)Nc1c(Cl)ccc2nsnc12)c1ccccc1F,inconclusive
19,COc1cc(C)ccc1OCC(=O)Nc1nnc(C2CC2)s1,inconclusive
20,COc1cc(CN(C)CC2CCCN(CCc3cccc(C(F)(F)F)c3)C2)ccc1O (stereo unspecified),active: 55.7%
21,O=C(Cc1ccc(-c2ccccc2)cc1)Nc1ncccc1O,inconclusive
22,COc1cc(C2C(C#N)=C(N)Oc3n[nH]c(-c4cccnc4)c32)ccc1OCC(N)=O (stereo unspecified),inactive: 0.4%
23,COc1ccc(-n2c(SCC(=O)NCC3CCCO3)nc3c([nH]c4ccccc43)c2=O)cc1OC (stereo unspecified),inconclusive
24,COC(=O)[C@H](Cc1ccccc1)NC(=O)[C@@H]1C[C@H]1[C@@H](NC(=O)OCc1ccccc1)c1ccccc1,active: 106%

# A draw from above in order of SMILES length, largest number first:
row,Structure (SMILES),inhibition
4,COc1cc(NC(=O)C2=C(N3CCOCC3)/C(=C\c3ccc(N(C)C)cc3)CCC2)cc(OC)c1OC,inactive: 4%
23,COc1ccc(-n2c(SCC(=O)NCC3CCCO3)nc3c([nH]c4ccccc43)c2=O)cc1OC (stereo unspecified),inconclusive
21,O=C(Cc1ccc(-c2ccccc2)cc1)Nc1ncccc1O,inconclusive

# Continuation:

row,Structure (SMILES),inhibition
1,CC(C)C[C@@H](CN1CCCC1CN1C(=S)NC[C@@H]1Cc1ccccc1)N1C[C@H](Cc2ccccc2)N(CCc2ccccc2)C1=S (stereo partly specified),inactive: 28.5%
2,CC(=O)Nc1cccc(N/C=C(\C=O)c2nc3ccccc3o2)c1,active: 56.1%
3,Cn1c(=O)oc2cc(S(=O)(=O)CCC(=O)N3CCN(c4ccccc4F)CC3)ccc21,inconclusive
4,CC(C(=O)Nc1cc(Cl)cc(Cl)c1)N1CCCC1 (stereo unspecified),inconclusive
5,Cn1nc(C2CC2)cc1NC(=O)C1(C)CCN1C(=O)CCc1ccccc1 (stereo unspecified),inactive: -0.8%
6,Cc1ccc(N(CC(=O)N/N=C/c2cccs2)S(C)(=O)=O)cc1,inconclusive
7,COc1cccc(OCc2cc(C(=O)N3CCC(c4ccncc4)CC3)no2)c1,inactive: 34.8%
8,CCN(CC)C(=S)SSC(=S)N(CC)CC,active: 64.2%
9,Cc1ccc(-n2ncc3c(NCCCOC(C)C)ncnc32)c(C)c1,inconclusive
10,CCn1ncc(S(=O)(=O)Nc2cc(Cl)ccc2C)c1C,inconclusive
11,Cc1cc(C(=O)N/N=C/c2cccnc2)cs1,inconclusive
12,CN(C(=O)CSc1nnc(-c2ccncc2)n1C)C1CCS(=O)(=O)C1 (stereo unspecified),inconclusive
13,O=C(O)C1CCCN1S(=O)(=O)c1ccc(Br)cc1 (stereo unspecified),inconclusive
14,COCCNc1nc(-c2cc(F)ccc2C)c2sc(-c3ccccc3)cc2n1,inconclusive
15,Cc1cc(-c2n[nH]c(=S)n2/N=C/C(Br)=C/c2ccccc2)n[nH]1,inconclusive
16,COc1ccc(C(=O)Nc2ccc(S(=O)(=O)Nc3cc(C)nc(C)n3)cc2)cc1,inactive: 4%
17,COc1ccccc1NNC(=O)C(O)(c1ccccc1)c1ccccc1,active: 104%
18,CCC(C)(C)NC(=O)C(c1ccc(F)cc1)N(Cc1ccco1)C(=O)CCC(=O)Nc1ccccn1 (stereo unspecified),inconclusive
19,Cn1c(=O)c2c(nc(SCC(=O)NC3CCCC3)n2C)n(C)c1=O,inconclusive
20,CC(=O)c1sc2nc(C)c3c(c2c1N)CCCC3,active: 62.3%
21,COCc1nc(-c2cc(Br)ccc2OC)no1,inconclusive
22,S=c1[nH]c2cnc(Cl)nc2[nH]1,inactive: 0.9%
23,CC(C)(C(=O)N1CCC1(C)C(=O)Nc1ccccc1Br)c1ccccc1 (stereo unspecified),inconclusive
24,Cc1ccc(Cn2c(SCCN3CCCCC3)nc3c2c(=O)[nH]c(=O)n3C)cc1,inactive: 0.4%

row,Structure (SMILES),inhibition
1,CC1CCc2c(sc3ncn(N)c(=N)c23)C1 (stereo unspecified),inconclusive
2,COc1ccc(NC(=O)COC(=O)Cn2cnc3ccccc3c2=O)cc1OC,inconclusive
3,CC(C)(O)C(=O)NNC(=S)Nc1cccc(C(F)(F)F)c1,inactive: -8.1%
4,Cc1ccc(C(=O)Nc2cccnc2)cc1C,inconclusive
5,COc1ccccc1NC1=C(NC(C)=O)C(=O)c2ccccc2C1=O,active: 90.2%
6,C/C(=N\Nc1ncc(Cl)cc1Cl)c1ccccn1,active: 98.4%
7,O=C(NCCCN1CCN(C2CCCCC2)CC1)Nc1ccccc1C(F)(F)F,inconclusive
8,Cc1ccc(-c2nn(-c3ccccc3)cc2CN(Cc2ccccc2)C(=O)c2ccco2)o1,active: 108%
9,Cc1cc2c3c([nH]c2cc1S(=O)(=O)NCc1ccc(CN2CCCCCC2)o1)CCCC3=O,inconclusive
10,COc1ccccc1NC(=O)COC(=O)c1ccc2c(c1)nc(C)n2-c1ccccc1,inconclusive
11,Cc1c(Br)c(C(=O)NCc2cc3cc(Cl)ccc3[nH]2)nn1C,inconclusive
12,Cc1ccc(-c2nnc(-n3ncc(C#N)c3N)c3ccccc23)cc1C,inactive: 0.7%
13,O=C(/C=C/c1ccc([N+](=O)[O-])cc1)c1ccccc(=O)c1O,active: 56.3%
14,Nc1nc(N)nc(C2C=CCCC2)n1 (stereo unspecified),inactive: -1%
15,O=C1CSc2ccc(C(=O)Nc3cccc(S(=O)(=O)Nc4ccc(Br)cc4)c3)cc2N1,active: 63.1%
16,COCCCNc1nc2c(c(=O)[nH]c(=O)n2C)n1CC(O)COc1cccc(C)c1 (stereo unspecified),inconclusive
17,COCc1cc(C)nc2sc(C(=O)Nc3ccc(C(=O)OC)cc3)c(N)c12,active: 84.8%
18,Cc1ccnc(NC(=O)c2cc3c(=O)oc4ccc(C)cc4c3s2)c1,inconclusive
19,COC(=O)c1c(SCC(=O)NC2CCCCC2)[nH]c2ccccc2c1=O,inconclusive
20,COc1ccc(C(C(=O)NCc2ccccc2)N(Cc2ccco2)C(=O)c2snc(C(N)=O)c2N)cc1OC (stereo unspecified),active: 55.7%
21,COc1cc(SC)ccc1C(=O)NNC(=O)C1COc2ccccc2O1 (stereo unspecified),inconclusive
22,COC(=O)c1ccc(OCCN2CCCCCC2)cc1,inactive: -1.2%
23,O=C(N/N=C/c1sc(=O)n(-c2ccccc2)c1Cl)c1ccncc1,inconclusive
24,COc1ccccc1/C=C/C=C(\C#N)C(=O)NC(C)c1ccccc1 (stereo unspecified),active: 76.9%

# Molecules from the list above that contain a halogen, in the order listed:
row,Structure (SMILES),inhibition
9,CCCn1c(SCC(=O)Nc2cc(S(=O)(=O)N3CCOCC3)ccc2Cl)n[nH]c1=O,inconclusive
13,O=C(Nc1cccc(Cl)c1)Nc1nccs1,inactive: -3%
17,CCOC(=O)c1nc(NCc2ccccc2F)c2ccccc2n1,inconclusive
18,O=C(NC(=S)Nc1c(Cl)ccc2nsnc12)c1ccccc1F,inconclusive
20,COc1cc(CN(C)CC2CCCN(CCc3cccc(C(F)(F)F)c3)C2)ccc1O (stereo unspecified),active: 55.7%
3,Cn1c(=O)oc2cc(S(=O)(=O)CCC(=O)N3CCN(c4ccccc4F)CC3)ccc21,inconclusive
4,CC(C(=O)Nc1cc(Cl)cc(Cl)c1)N1CCCC1 (stereo unspecified),inconclusive
10,CCn1ncc(S(=O)(=O)Nc2cc(Cl)ccc2C)c1C,inconclusive
13,O=C(O)C1CCCN1S(=O)(=O)c1ccc(Br)cc1 (stereo unspecified),inconclusive
14,COCCNc1nc(-c2cc(F)ccc2C)c2sc(-c3ccccc3)cc2n1,inconclusive
15,Cc1cc(-c2n[nH]c(=S)n2/N=C/C(Br)=C/c2ccccc2)n[nH]1,inconclusive
18,CCC(C)(C)NC(=O)C(c1ccc(F)cc1)N(Cc1ccco1)C(=O)CCC(=O)Nc1ccccn1 (stereo unspecified),inconclusive
21,COCc1nc(-c2cc(Br)ccc2OC)no1,inconclusive
22,S=c1[nH]c2cnc(Cl)nc2[nH]1,inactive: 0.9%
23,CC(C)(C(=O)N1CCC1(C)C(=O)Nc1ccccc1Br)c1ccccc1 (stereo unspecified),inconclusive
3,CC(C)(O)C(=O)NNC(=S)Nc1cccc(C(F)(F)F)c1,inactive: -8.1%
6,C/C(=N\Nc1ncc(Cl)cc1Cl)c1ccccn1,active: 98.4%
7,O=C(NCCCN1CCN(C2CCCCC2)CC1)Nc1ccccc1C(F)(F)F,inconclusive
11,Cc1c(Br)c(C(=O)NCc2cc3cc(Cl)ccc3[nH]2)nn1C,inconclusive
15,O=C1CSc2ccc(C(=O)Nc3cccc(S(=O)(=O)Nc4ccc(Br)cc4)c3)cc2N1,active: 63.1%
23,O=C(N/N=C/c1sc(=O)n(-c2ccccc2)c1Cl)c1ccncc1,inconclusive

# Next compounds follow:

row,Structure (SMILES),inhibition
1,Cc1cc(C)cc(N=c2c([N+](=O)[O-])nn(-c3ccc4c(c3)OCCO4)n2O)c1,inactive: -16%
2,Cn1c(=O)c(C(=O)NCCc2ccc(Cl)cc2)c(O)c2ccccc21,inactive: 0.8%
3,N#CC(C(=O)NC1CC1)c1nc2ccccc2nc1N1CCCC1 (stereo unspecified),inconclusive
4,Fc1ccc(/C=N/NC(=S)NCCc2ccccc2)cc1F,inconclusive
5,COc1ccc(NC(=O)CNC(c2ccccc2)c2ccccc2)cc1Cl,inconclusive
6,O=C(c1ccc(S(=O)(=O)N2CCC(c3nc4ccccc4s3)CC2)cc1)N1CCCCC1,inconclusive
7,O=[N+]([O-])c1ccc(O)c(N=Cc2sc3ccccc3c2O)c1,inactive: 0.6%
8,CC(C(=O)N1CCN(Cc2ccc3c(c2)OCO3)CC1)n1cc([N+](=O)[O-])cn1 (stereo unspecified),inconclusive
9,Cc1ccc(C)c(S(=O)(=O)NCCCc2ccccc2)c1,active: 58.4%
10,O=C(NCCCNC(=O)c1cc(Cl)ccc1Cl)c1ccco1,inconclusive
11,COc1ccc(N2CCN(C(C)C(=O)N(C)Cc3ccccc3)CC2)cc1 (stereo unspecified),inconclusive
12,CCCN1C(=O)/C(=C/c2nc3ccccc3c(=O)[nH]2)c2cc(C)ccc21,inconclusive
13,O=C(Nc1cc(S(=O)(=O)Nc2ccccc2Cl)ccc1O)c1cc2c(s1)CCCC2,inconclusive
14,O=C(N1CCOCC1)N1CCN(S(=O)(=O)N2CCOCC2)CC1,inconclusive
15,Cc1ccc(-c2ccnc3nc(Sc4ncc(C(F)(F)F)cc4Cl)nn23)cc1,active: 67.5%
16,CCOc1cc(CNCc2ccccc2)ccc1OCc1ccc(Cl)cc1,active: 90.4%
17,Cc1cc(O)c(C(C)C)cc1C1(c2cc(C(C)C)c(O)cc2C)OC(=O)c2ccccc21,active: 88.3%
18,CN(Cc1ccc(C(C)(C)C)cc1)C(=O)c1ccc2c(c1)OCO2,inactive: -1.9%
19,CC(NC(=O)Nc1cccc(F)c1)c1ccc2c(c1)OCO2 (stereo unspecified),inconclusive
20,Cc1ccc(NS(=O)(=O)c2ccc(-n3cccn3)cc2)c(Cl)c1,inactive: 6.2%
21,CCCc1ccc2oc(C(=O)NCCc3nc(C(=O)OCC)cs3)c(C)c2c1,inconclusive
22,C[C@@H]1CN([C@H](C)CO)C(=O)CCCn2nncc2CO[C@@H]1CN(C)C(=O)CCC(F)(F)F,inactive: 1.5%
23,CCOC(=O)Cc1csc(N/N=C/c2cccc([N+](=O)[O-])c2)n1,inconclusive
24,COc1cc2nc(COc3ccccc3[N+](=O)[O-])oc(=O)c2cc1OC,inconclusive
